Source: patent US9011589B2, “Magenta dyes and their preparation methods and applications” (Dalian University of Technology, priority 2012, dated 2015)

test: Wet resistance of the printed images (bleeding); design: key: ∘: No bleeding; Δ: Slight bleeding; x: Notable bleeding; settings: bleeding judged with bare eyes; 50° C., 90% RH, 168 h

| Compound | Water resistance of printed images |
| --- | --- |
| O=C([O-])CCCS(=O)(=O)c1ccc(S(=O)(=O)[O-])c(Nc2cc(S(=O)(=O)[O-])c3[nH]c(=O)c(C(=O)OCc4ccccc4)c4c3c2C(=O)c2ccccc2-4)c1.[Na+].[Na+].[Na+] [Dm3] | ∘ |
| O=S(=O)([O-])c1cc(Nc2nc(Nc3ccc(/C=C/c4ccc(Nc5nc(Nc6cc(S(=O)(=O)[O-])cc7cc(S(=O)(=O)[O-])c(N=Nc8ccccc8)c(O)c67)nc(N6CCOCC6)n5)cc4S(=O)(=O)[O-])c(S(=O)(=O)[O-])c3)nc(N3CCOCC3)n2)c2c(O)c(N=Nc3ccccc3)c(S(=O)(=O)[O-])cc2c1.[Na+].[Na+].[Na+].[Na+].[Na+].[Na+] [C.I. direct red 227, reference compound] | Δ |
| O=C([O-])CCCS(=O)(=O)c1cc(S(=O)(=O)[O-])c(Nc2cc(S(=O)(=O)[O-])c3[nH]c(=O)c(C(=O)OCc4cccc5ccccc45)c4c3c2C(=O)c2ccccc2-4)c(S(=O)(=O)[O-])c1.[Na+].[Na+].[Na+].[Na+] [Dp17] | ∘ |
| O=C([O-])CCCS(=O)(=O)c1cc(S(=O)(=O)[O-])c(Nc2cc(S(=O)(=O)[O-])c3[nH]c(=O)c(C(=O)[O-])c4c3c2C(=O)c2ccccc2-4)c(S(=O)(=O)[O-])c1.[Na+].[Na+].[Na+].[Na+].[Na+] [Dp2] | ∘ |
| Cc1ccc(COC(=O)c2c3c4c(c(Nc5cc(S(=O)(=O)CCCC(=O)[O-])ccc5S(=O)(=O)[O-])cc(S(=O)(=O)[O-])c4[nH]c2=O)C(=O)c2ccccc2-3)cc1.[Na+].[Na+].[Na+] [Dm5] | ∘ |
| O=C([O-])CCCS(=O)(=O)c1cc(S(=O)(=O)[O-])c(Nc2cc(S(=O)(=O)[O-])c3[nH]c(=O)c(C(=O)OCc4ccccc4)c4c3c2C(=O)c2ccccc2-4)c(S(=O)(=O)[O-])c1.[Na+].[Na+].[Na+].[Na+] [Dp4] | ∘ |
| Cn1c(=O)c(C(=O)OCc2cccc3ccccc23)c2c3c(c(Nc4ccc(S(=O)(=O)[O-])cc4S(=O)(=O)[O-])ccc31)C(=O)c1ccccc1-2.[Na+].[Na+] [Dye2, reference compound] | ∘ |
| O=C([O-])CCCS(=O)(=O)c1cc(S(=O)(=O)[O-])c(Nc2cc(S(=O)(=O)[O-])c3[nH]c(=O)c(C(=O)OCc4cccc(S(=O)(=O)[O-])c4)c4c3c2C(=O)c2ccccc2-4)c(S(=O)(=O)[O-])c1.[Na+].[Na+].[Na+].[Na+].[Na+] [Dp14] | Δ |
| O=C([O-])CCCS(=O)(=O)c1ccc(S(=O)(=O)[O-])c(Nc2cc(S(=O)(=O)[O-])c3[nH]c(=O)c(C(=O)OCc4cccc([N+](=O)[O-])c4)c4c3c2C(=O)c2ccccc2-4)c1.[Na+].[Na+].[Na+] [Dm7] | ∘ |
| O=C([O-])CCCS(=O)(=O)c1cc(S(=O)(=O)[O-])c(Nc2cc(S(=O)(=O)[O-])c3[nH]c(=O)c(C(=O)OCc4cccc(Cl)c4)c4c3c2C(=O)c2ccccc2-4)c(S(=O)(=O)[O-])c1.[Na+].[Na+].[Na+].[Na+] [Dp10] | ∘ |
| O=C([O-])CCCS(=O)(=O)c1ccc(S(=O)(=O)[O-])c(Nc2cc(S(=O)(=O)[O-])c3[nH]c(=O)c(C(=O)[O-])c4c3c2C(=O)c2ccccc2-4)c1.[Na+].[Na+].[Na+].[Na+] [Dm1] | ∘ |
| O=C(Nc1cc(S(=O)(=O)[O-])cc2cc(S(=O)(=O)[O-])c(N=Nc3ccc4cc(S(=O)(=O)CCOS(=O)(=O)[O-])ccc4c3S(=O)(=O)[O-])c(O)c12)c1ccccc1.[Na+].[Na+].[Na+].[Na+] [C.I. reactive red 180, reference compound] | Δ |
